Source: patent US20240002424A1, “HEXOSAMINE COMPOUNDS AND METHODS THEREOF” (National Institute of Immunology, priority 2021, published 2024)
Some results were stated once for a whole list of compounds, not compound by compound.

System: Jurkat cells
Test: NeuAz expression on the cell surface by SPAAC with DBCO-Cy5 and flow cytometry, competition with Ac4ManNAz (1c)
Type: cell-based, human
Conditions: 50 μM co-incubated with 1c 50 μM, 48 h
Experimental: FIG. 5 illustrates competitive processing by compounds of the present invention (ManNAc compounds). ManNAc compounds competitively reduce the expression of N-azidoacetyl-D-neuraminic acid (NeuAz)-carrying sialoglycans through the metabolic processing of Ac4ManNAz. Jurkat (human T-lymphoma) cells were incubated with Ac4ManNAz (Z) (50 μM) alone, co-incubated with GL-2, GL-3, MA-2, or MA-3 (at various concentrations such as 10,
25, and 50 μM) for 24 h. Expression of N-azidoacetyl-D-neuraminic acid (NeuAz) on the cell surface sialoglycans was estimated using strain-promoted azide-alkyne cycloaddition (SPAAC) with DBCO-Cy5 and analyzed by flow cytometry. […]
Jurkat cells (3.0×10^5 cells/mL; 2.5 mL per well in 6-well plates) in complete medium were treated with either vehicle (D) or Compound 1c; Untreated Jurkat cells, without addition of vehicle, were also included as additional controls. […] Prior to the last wash cells were counted and were aliquoted to 1.0×10^6 cells per sample in 1.5 mL microcentrifuge tubes and centrifuged. […] After one hour, the cells were washed using FSB (0.5 mL, 3000×g, 2.0 min, room temperature), resuspended in PBS (250 mL), treated with PI (2.5 mg/mL), and analyzed using BD FACSCanto and FACSDiva Version 6.1.3. […] Two replicate samples were prepared for each conditions and each sample was counted twice. […]

In the case of CC(=O)OC[C@H]1O[C@H](OC(C)=O)[C@@H](NC(=O)C2CC2)[C@@H](OC(C)=O)[C@@H]1OC(C)=O [Compound 1a, 1,3,4,6-tetra-O-acetyl-2-cyclopropanoylamino-2-deoxy-α-D-mannopyranose], the “reduction of NeuAz expression” value is reported as 35-40%.
